Laboratory results: patent publication US20220184177A1
Results are given in words; binding and its absence hold for the method and conditions named. Some entries that bind do so weakly or less than the wild type.

The chains behind the UniProt entries cited, without tags or fusion partners.
UniProt P03372: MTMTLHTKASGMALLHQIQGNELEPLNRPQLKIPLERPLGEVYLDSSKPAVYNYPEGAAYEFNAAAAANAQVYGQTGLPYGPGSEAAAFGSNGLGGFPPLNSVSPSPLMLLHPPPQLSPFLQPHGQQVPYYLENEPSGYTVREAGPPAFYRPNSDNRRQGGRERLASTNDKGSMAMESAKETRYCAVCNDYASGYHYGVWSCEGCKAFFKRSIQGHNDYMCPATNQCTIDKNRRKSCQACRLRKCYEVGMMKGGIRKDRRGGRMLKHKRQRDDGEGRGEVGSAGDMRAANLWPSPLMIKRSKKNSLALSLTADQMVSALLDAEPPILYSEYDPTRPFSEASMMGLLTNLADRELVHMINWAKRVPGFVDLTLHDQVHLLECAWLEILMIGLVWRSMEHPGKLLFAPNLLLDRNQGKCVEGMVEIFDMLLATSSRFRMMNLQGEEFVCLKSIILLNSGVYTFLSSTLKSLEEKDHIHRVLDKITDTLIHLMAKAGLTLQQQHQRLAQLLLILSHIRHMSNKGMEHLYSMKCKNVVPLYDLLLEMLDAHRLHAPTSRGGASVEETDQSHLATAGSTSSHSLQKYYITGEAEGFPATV
UniProt P05412: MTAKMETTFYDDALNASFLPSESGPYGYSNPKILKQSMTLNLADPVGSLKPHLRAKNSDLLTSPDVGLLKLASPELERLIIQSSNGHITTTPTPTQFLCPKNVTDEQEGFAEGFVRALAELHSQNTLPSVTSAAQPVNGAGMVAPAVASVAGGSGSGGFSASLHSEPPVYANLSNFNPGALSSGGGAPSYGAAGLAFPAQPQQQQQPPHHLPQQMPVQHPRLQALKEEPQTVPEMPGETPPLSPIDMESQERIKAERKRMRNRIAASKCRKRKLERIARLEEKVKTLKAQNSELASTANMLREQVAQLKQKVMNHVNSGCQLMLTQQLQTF

Key:
Estrogen Receptor α [1] = biological target: Estrogen Receptor α (UniProt P03372); assay: BLI binding curves on ERα
Estrogen Receptor α [2] = biological target: Estrogen Receptor α (UniProt P03372); assay: BLI competition assay, CAPER-alone reference curve on ER without peptide
[3] = biological target: His-tagged recombinant c-Jun (UniProt P05412); assay: BLI competition assay, CAPER-alone reference curve on c-Jun tips without peptide
[4] = biological target: His-tagged recombinant c-Jun (UniProt P05412); assay: BLI (Octet), His-tagged c-Jun captured on anti-His tips, full-length CAPER in solution

Measured: binding

B1: Recombinant Full-Length CAPER HCC1.3 (protein)
chain: ADDIDIEAMLEAPYKKDENKLSSANGHEERSKKRKKSKSRSRSHERKRSKSKERKRSRDRERKKSKSRERKRSRSKERRRSRSRSRDRRFRGRYRSPYSGPKFNSAIRGKIGLPHSIKLSRRRSRSKSPFRKDKSPVREPIDNLTPEERDARTVFCMQLAARIRPRDLEEFFSTVGKVRDVRMISDRNSRRSKGIAYVEFVDVSSVPLAIGLTGQRVLGVPIIVQASQAEKNRAAAMANNLQKGSAGPMRLYVGSLHFNITEDMLRGIFEPFGRIESIQLMMDSETGRSKGYGFITFSDSECAKKALEQLNGFELAGRPMKVGHVTERTDASSASSFLDSDELERTGIDLGTTGRLQLMARLAEGTGLQIPPAAQQALQMSGSLAFGAVADLQTRLSQQTEASALAAAASVQPLATQCFQLSNMFNPQTEEEVGWDTEIKDDVIEECNKHGGVIHIYVDKNSAQGNVYVKCPSIAAAIAAVNALHGRWFAGKMITAAYVPLPTYHNLFPDSMTATQLLVPSRR
binds: Estrogen Receptor α [1] | Estrogen Receptor α [2] | [3] | [4]
